Laboratory results as given in paper PMC3790753.
These are yes or no findings as the source states them, for the method shown. Some entries that bind do so weakly or less than the wild type. Sequences can lack the tags named with a protein.

How the values were obtained:
Assay in all cases: two-hybrid; Matchmaker 3 (Clontech), baits in pGBKT7, preys in pGADT7, Y2H Gold yeast; growth on media lacking leucine, tryptophan and histidine
[1] = biological target: T1, plakophilin-1 HD (amino acids 1-234), Gal4 DNA binding domain fusion (UniProt Q13835)
T1 sequence: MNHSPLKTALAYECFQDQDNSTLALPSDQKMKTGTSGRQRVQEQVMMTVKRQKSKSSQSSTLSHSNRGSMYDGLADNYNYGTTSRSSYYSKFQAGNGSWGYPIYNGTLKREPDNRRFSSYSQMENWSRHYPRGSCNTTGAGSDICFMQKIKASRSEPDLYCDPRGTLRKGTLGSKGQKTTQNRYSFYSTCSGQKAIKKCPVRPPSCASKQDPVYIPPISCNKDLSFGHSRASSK

[2] = biological target: T2, plakophilin-2 HD (amino acids 1-342), Gal4 DNA binding domain fusion (UniProt Q99959)
T2 sequence: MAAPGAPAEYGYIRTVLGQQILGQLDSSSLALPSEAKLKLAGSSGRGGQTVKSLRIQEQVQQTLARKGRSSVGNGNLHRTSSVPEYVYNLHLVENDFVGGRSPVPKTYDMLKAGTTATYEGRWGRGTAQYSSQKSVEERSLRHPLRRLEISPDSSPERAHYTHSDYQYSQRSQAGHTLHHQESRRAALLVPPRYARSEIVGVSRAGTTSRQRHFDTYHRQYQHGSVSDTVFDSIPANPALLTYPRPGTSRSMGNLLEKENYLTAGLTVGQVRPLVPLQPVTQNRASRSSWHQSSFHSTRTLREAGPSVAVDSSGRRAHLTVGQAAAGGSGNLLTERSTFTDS

[3] = biological target: T3, plakophilin-3 HD (amino acids 1-307), Gal4 DNA binding domain fusion (human) (UniProt Q9Y446)
T3 sequence: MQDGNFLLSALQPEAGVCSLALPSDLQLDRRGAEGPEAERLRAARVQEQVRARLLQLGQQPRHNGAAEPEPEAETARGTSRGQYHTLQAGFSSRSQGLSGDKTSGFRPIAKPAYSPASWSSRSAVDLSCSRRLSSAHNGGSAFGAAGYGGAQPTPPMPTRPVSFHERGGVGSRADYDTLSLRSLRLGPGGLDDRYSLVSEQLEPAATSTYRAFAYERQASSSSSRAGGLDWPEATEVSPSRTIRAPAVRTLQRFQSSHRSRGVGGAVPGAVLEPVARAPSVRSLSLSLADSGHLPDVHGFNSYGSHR

[4] = biological target: T4, plakophilin-3 HD S285A, Gal4 DNA binding domain fusion (human) (UniProt Q9Y446)
T4 sequence: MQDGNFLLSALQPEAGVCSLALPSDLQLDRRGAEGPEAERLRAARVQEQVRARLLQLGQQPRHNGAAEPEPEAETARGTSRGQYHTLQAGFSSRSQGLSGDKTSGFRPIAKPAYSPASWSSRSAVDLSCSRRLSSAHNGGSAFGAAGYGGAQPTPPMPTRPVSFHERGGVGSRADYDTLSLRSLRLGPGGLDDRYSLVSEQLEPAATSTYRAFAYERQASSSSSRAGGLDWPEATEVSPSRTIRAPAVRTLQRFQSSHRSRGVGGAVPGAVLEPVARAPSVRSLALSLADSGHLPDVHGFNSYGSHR

Measured: binding

B1: desmoplakin (amino acids 1-584) fused to the Gal4 activation domain (domain or fragment, UniProt P15924 1-584)
chain: MSCNGGSHPRINTLGRMIRAESGPDLRYEVTSGGGGTSRMYYSRRGVITDQNSDGYCQTGTMSRHQNQNTIQELLQNCSDCLMRAELIVQPELKYGDGIQLTRSRELDECFAQANDQMEILDSLIREMRQMGQPCDAYQKRLLQLQEQMRALYKAISVPRVRRASSKGGGGYTCQSGSGWDEFTKHVTSECLGWMRQQRAEMDMVAWGVDLASVEQHINSHRGIHNSIGDYRWQLDKIKADLREKSAIYQLEEEYENLLKASFERMDHLRQLQNIIQATSREIMWINDCEEEELLYDWSDKNTNIAQKQEAFSIRMSQLEVKEKELNKLKQESDQLVLNQHPASDKIEAYMDTLQTQWSWILQITKCIDVHLKENAAYFQFFEEAQSTEAYLKGLQDSIRKKYPCDKNMPLQHLLEQIKELEKEREKILEYKRQVQNLVNKSKKIVQLKPRNPDYRSNKPIILRALCDYKQDQKIVHKGDECILKDNNERSKWYVTGPGGVDMLVPSVGLIIPPPNPLAVDLSCKIEQYYEAILALWNQLYINMKSLVSWHYCMIDIEKIRAMTIAKLKTMRQEDYMKTIADLE
binds: all assays above
